# This is one part of the list. The data scatter; read single values as rough.
# By UniProt entry, the sequences of proteins in these tests, tags left out. Where a name states a change or a piece, a line headed by the entry shows the natural chain unless it says otherwise. Residues count along the entry.
# UniProt P46821: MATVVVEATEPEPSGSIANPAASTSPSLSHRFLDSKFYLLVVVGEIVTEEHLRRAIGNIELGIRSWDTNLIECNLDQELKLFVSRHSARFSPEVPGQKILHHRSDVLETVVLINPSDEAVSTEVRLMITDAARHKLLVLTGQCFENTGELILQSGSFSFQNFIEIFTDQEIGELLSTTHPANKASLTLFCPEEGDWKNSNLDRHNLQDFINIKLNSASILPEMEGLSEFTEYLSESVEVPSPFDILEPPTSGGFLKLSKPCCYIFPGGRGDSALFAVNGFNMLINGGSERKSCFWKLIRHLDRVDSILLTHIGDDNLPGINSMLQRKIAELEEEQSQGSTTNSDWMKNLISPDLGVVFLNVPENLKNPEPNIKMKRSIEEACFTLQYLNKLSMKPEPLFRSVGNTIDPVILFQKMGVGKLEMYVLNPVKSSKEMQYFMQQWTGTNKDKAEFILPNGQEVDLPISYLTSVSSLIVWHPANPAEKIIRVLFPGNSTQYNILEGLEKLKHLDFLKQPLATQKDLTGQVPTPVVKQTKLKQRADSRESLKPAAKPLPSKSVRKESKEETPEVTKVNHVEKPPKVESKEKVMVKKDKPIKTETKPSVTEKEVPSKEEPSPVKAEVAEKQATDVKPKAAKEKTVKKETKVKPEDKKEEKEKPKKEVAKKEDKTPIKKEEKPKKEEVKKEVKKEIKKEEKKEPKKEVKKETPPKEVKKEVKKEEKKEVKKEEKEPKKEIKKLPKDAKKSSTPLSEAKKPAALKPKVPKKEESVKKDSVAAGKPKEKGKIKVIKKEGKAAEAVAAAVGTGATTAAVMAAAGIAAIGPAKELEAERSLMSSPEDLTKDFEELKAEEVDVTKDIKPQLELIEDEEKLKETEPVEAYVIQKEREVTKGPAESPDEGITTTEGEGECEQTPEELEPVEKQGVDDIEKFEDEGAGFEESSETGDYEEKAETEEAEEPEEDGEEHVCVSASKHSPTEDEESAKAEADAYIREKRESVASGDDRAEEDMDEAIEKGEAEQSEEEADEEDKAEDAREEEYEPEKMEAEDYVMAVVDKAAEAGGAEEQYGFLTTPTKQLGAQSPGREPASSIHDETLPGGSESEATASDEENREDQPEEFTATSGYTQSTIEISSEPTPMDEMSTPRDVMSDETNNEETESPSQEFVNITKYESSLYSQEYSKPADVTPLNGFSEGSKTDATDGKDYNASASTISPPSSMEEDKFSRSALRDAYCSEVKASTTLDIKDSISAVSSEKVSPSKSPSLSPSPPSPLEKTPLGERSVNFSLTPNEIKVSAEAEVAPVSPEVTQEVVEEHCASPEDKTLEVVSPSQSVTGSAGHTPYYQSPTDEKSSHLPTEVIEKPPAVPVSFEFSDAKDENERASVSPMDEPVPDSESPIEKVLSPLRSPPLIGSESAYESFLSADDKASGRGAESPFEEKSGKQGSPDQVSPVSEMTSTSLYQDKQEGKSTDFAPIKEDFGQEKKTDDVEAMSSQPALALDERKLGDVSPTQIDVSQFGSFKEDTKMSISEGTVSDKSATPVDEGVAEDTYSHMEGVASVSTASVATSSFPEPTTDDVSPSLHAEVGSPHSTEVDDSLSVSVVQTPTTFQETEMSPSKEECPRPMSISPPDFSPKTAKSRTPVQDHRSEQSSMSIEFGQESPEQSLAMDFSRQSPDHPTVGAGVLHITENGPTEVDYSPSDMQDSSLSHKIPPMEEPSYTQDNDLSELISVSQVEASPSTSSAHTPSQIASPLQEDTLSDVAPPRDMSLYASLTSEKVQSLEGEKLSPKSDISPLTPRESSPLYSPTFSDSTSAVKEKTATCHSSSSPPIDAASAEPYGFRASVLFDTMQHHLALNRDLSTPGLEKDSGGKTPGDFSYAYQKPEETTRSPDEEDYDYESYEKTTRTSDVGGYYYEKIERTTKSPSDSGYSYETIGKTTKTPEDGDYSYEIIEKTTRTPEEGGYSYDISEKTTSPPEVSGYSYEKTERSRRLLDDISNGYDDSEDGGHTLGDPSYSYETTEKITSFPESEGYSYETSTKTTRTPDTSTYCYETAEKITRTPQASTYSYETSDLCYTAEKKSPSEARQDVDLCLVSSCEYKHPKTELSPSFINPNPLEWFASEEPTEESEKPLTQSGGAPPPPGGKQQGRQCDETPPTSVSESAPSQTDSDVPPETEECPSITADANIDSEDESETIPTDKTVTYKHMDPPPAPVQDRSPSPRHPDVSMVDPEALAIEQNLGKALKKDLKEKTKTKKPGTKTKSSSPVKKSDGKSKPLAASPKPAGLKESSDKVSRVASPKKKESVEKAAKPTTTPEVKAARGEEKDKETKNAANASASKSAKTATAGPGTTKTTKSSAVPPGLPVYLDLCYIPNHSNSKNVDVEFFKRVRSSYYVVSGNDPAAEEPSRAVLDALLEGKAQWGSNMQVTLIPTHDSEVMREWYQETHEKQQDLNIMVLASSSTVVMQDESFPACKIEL
# UniProt P49137, 213-239: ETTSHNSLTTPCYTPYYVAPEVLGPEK
# UniProt Q8N4S9: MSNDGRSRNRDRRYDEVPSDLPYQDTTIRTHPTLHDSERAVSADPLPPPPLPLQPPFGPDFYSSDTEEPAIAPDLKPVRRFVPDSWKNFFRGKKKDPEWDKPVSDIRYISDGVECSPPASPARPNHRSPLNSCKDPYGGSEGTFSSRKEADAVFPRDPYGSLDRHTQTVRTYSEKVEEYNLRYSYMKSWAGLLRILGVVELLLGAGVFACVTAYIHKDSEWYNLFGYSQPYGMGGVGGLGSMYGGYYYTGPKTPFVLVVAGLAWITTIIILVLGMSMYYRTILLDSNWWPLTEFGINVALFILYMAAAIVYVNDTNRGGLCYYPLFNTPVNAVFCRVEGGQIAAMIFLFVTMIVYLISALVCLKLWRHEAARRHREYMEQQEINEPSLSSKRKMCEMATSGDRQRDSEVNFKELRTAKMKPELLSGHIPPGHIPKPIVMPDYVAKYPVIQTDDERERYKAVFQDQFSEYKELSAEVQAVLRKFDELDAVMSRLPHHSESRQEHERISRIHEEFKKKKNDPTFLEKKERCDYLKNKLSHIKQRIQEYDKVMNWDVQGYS
# UniProt O94822: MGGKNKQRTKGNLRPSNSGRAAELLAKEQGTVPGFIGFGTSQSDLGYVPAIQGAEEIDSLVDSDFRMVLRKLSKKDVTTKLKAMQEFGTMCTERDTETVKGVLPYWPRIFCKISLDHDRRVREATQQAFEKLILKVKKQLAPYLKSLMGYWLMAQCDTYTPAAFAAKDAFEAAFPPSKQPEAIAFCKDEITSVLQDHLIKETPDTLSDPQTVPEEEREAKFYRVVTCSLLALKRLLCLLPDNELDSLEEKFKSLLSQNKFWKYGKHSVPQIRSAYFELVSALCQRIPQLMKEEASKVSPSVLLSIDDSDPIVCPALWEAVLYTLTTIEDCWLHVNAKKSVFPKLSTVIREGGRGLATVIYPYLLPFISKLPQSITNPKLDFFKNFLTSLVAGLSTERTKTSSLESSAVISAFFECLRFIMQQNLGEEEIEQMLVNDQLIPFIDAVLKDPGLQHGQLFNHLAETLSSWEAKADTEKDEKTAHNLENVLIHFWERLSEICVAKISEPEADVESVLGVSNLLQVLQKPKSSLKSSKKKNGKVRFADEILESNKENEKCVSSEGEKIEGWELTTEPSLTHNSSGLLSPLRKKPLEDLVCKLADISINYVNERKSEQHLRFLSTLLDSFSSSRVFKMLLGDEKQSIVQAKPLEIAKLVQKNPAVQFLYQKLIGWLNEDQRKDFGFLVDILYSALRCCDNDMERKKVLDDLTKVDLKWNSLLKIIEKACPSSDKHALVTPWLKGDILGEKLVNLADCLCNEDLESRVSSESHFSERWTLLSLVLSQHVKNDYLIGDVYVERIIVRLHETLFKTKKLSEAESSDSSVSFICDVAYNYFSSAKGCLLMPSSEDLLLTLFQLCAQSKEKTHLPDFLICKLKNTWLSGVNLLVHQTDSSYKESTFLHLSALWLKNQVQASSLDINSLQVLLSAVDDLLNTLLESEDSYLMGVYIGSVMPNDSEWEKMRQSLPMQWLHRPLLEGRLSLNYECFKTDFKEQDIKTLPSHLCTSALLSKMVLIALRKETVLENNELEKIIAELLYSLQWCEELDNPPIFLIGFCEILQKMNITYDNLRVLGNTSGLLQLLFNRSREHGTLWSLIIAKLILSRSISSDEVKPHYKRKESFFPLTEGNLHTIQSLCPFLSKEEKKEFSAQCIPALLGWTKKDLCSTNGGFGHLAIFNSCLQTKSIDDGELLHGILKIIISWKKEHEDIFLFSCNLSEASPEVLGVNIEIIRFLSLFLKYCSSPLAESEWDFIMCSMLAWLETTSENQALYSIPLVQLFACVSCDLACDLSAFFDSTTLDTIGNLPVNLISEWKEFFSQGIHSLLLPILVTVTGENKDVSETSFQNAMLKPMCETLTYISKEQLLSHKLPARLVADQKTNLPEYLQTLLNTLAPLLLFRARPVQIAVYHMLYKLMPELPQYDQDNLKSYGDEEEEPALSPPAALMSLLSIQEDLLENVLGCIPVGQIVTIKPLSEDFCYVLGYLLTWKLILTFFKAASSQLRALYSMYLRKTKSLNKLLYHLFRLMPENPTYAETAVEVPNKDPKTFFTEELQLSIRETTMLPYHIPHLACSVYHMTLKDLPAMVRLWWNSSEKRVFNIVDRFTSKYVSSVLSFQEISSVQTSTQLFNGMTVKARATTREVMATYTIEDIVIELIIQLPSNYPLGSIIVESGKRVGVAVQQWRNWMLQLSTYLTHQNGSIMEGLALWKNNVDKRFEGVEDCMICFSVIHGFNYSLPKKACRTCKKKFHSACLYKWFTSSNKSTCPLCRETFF
# UniProt Q6UWE0: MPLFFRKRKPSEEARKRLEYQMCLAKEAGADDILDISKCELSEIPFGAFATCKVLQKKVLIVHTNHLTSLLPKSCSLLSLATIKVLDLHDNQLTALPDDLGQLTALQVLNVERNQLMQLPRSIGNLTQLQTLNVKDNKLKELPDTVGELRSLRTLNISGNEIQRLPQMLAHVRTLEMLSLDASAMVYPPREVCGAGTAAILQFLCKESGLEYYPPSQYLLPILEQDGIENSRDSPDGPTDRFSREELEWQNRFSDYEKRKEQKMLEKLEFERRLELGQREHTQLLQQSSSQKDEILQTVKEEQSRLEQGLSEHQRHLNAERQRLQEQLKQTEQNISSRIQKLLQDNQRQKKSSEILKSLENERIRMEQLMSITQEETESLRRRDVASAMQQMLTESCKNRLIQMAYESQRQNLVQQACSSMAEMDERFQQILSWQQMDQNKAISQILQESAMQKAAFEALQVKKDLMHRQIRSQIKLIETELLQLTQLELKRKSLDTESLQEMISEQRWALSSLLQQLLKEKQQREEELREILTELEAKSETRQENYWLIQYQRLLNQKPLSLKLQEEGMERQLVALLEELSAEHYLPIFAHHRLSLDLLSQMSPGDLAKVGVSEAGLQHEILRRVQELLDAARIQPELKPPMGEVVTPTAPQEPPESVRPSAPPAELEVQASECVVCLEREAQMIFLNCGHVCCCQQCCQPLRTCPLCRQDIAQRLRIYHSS
# UniProt Q15048, 146-168: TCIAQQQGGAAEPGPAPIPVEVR
# UniProt Q14566: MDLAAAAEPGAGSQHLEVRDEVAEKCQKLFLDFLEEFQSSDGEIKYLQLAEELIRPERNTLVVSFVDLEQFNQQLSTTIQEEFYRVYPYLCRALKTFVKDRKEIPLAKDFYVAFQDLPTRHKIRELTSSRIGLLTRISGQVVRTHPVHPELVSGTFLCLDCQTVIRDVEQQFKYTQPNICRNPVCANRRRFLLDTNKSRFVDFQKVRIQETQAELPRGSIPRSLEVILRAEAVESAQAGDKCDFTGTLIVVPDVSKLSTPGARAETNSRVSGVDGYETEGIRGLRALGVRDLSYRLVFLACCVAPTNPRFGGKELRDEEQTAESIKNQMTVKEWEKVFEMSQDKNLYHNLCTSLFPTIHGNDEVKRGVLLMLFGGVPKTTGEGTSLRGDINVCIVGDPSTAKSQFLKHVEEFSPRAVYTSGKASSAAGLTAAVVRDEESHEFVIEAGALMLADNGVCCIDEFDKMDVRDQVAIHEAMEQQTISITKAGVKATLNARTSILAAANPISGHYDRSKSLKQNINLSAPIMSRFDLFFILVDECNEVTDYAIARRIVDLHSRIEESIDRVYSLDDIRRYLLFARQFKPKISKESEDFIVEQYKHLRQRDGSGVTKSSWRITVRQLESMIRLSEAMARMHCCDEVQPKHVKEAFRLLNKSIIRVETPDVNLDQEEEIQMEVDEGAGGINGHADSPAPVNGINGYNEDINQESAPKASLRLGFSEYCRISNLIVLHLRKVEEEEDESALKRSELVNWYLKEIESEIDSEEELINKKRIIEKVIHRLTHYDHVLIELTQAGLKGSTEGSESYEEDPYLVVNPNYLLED
# UniProt Q9UFC0, 248-272: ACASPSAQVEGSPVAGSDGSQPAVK
# UniProt Q9Y6R4, 178-197: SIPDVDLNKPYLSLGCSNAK
# UniProt Q9ULX9: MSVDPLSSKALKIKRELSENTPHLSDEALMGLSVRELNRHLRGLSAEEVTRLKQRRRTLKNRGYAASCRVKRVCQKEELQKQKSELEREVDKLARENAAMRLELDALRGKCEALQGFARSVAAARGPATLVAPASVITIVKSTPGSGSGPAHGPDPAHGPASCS
# Compound: ClCC(=O)N[C@H]1CCCc2ccccc12
# Assay: log2 mean competition ratio of IA-DTB cysteine labelling (DMSO/compound) (log2 ratio); higher = stronger cysteine engagement by compound
# Conditions: 200 µM; treatment time: 4 h; cell line lysate: HEK293T
# Experimental: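 IA-DTB competitive cysteine chemoproteomics in HEK293T RIPA lysate. Lysates were treated with compound 29 or 30 at 50 or 200 µM for 4 h, then IA-DTB (500 µM, 1 h), trypsin-digested, NeutrAvidin-enriched and analysed by diaPASEF. Competition ratio = intensity DMSO / intensity compound (n=4 treated, n=64 DMSO); binding: mean log2 CR ≥ 1 and p ≤ 0.05 plus QC filters. Target is the cysteine site.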
row,Target,log2 mean competition ratio
1,MAU2 C165 (UniProt Q9Y6X3),-0.324
2,MAP1B C2041 (UniProt P46821),0.343
3,LSM14B C80 (UniProt Q9BX40),-0.03
4,MARCHF5 C33 (UniProt Q9NX47),-0.26
5,MAP3K2 C373 (UniProt Q9Y2U5),-0.0988
6,MAPKAPK2 C224 (UniProt P49137),-0.359
7,MAP7D1 C361 (UniProt Q3KQU3),-0.00927
8,MCM3 C134 (UniProt P25205),-0.459
9,LZTR1 C427 (UniProt Q8N653),-0.134
10,MBTPS2 C371 (UniProt O43462),0.347
11,MARVELD2 C395 (UniProt Q8N4S9),0.0391
12,LYPLA2 C171 (UniProt O95372),0.173
13,MCC C174 (UniProt P23508),0.271
14,LTN1 C498 (UniProt O94822),-0.133
15,MACF1 C5346,0.0868
16,MARS1 C309,0.0559
17,LRSAM1 C418 (UniProt Q6UWE0),0.415
18,MCM4 C509 (UniProt P33991),-0.072
19,MAPK3 C178,0.17

# A different layout for some results above:
row	Target	log2 mean competition ratio
15	MACF1 C5346	0.0868
16	MARS1 C309	0.0559

# The listing continues:

row,Target,log2 mean competition ratio
1,MARK1 C507 (UniProt Q9P0L2),0.0899
2,LRRC14 C147 (UniProt Q15048),-0.108
3,LRRC1 C432,0.497
4,MCM6 C180 (UniProt Q14566),0.0257
5,LRWD1 C249 (UniProt Q9UFC0),-0.0983
6,LZTS2 C444 (UniProt Q9BRK4),-0.0233
7,MCM3AP C1309 (UniProt O60318),0.39
8,LRRC8D C218 (UniProt Q7L1W4),-0.0839
9,LZTS2 C74 (UniProt Q9BRK4),0.0624
10,MAP7D3 C572 (UniProt Q8IWC1),0.0754
11,MAP4K3 C509 (UniProt Q8IVH8),0.209
12,MAP3K20 C150 (UniProt Q9NYL2),-0.107
13,MAP3K4 C193 (UniProt Q9Y6R4),0.0391
14,LRRC42 C301 (UniProt Q9Y546),0.0796
15,LYN C381 (UniProt P07948),0.176
16,LRRC42 C212 (UniProt Q9Y546),0.0812
17,MAFF C68 (UniProt Q9ULX9),0.216
18,LZTFL1 C35 (UniProt Q9NQ48),-0.09

# Source: the supplement of paper PMC11732987, “Enantioselective OTUD7B fragment discovery through chemoproteomics screening and high-throughput optimisation” (Communications Chemistry, 2025)
